Record: PubChem BioAssay AID1259308 (NCATS, 2017)

- Assay: 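Candidate targets for better recombinant protein yield in mammalian cells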 (primary screen)
- System: human HEK293 embryonic kidney cells stably expressing firefly luciferase (HEK-CMV-Luc2-Hygro)
- Reagent: single siRNA against human genes, 0.8 pmol siRNA per well
- Timing: 72 h
- Measured: 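Luciferase light (ONE-Glo) measured on one replicate plate set and viability (CellTiter-Glo) on the other, scaled to a negative control siRNA, with robust z-scores and luciferase per cell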
- Direction: total luciferase, z-score and total luciferase, % of control: higher = more reporter protein produced
- Active means: 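Active when the median/MAD z-score for overall luciferase is greater than 3; a gene was taken forward for validation with new siRNAs if at least two of its three siRNAs passed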
- Meaning of the calls: active = raised luciferase; inactive = no rise
Here is a random part of about 59,000 reagents. In the full data, about 1,510 (2.6%) got an active call. 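Calls use total luciferase alone and ignore viability, so some active siRNAs may act by altering cell number.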 Further read-outs or replicates are left out here.

MYL12B [SID160754680] → total luciferase, z-score = -0.576; total luciferase, % of control = 70.4; outcome = inactive
MYL12B [SID160754681] → total luciferase, z-score = -0.0939; total luciferase, % of control = 80; outcome = inactive
MYL12B [SID160754682] → total luciferase, z-score = -0.731; total luciferase, % of control = 67.4; outcome = inactive
IFNE [SID160764022] → total luciferase, z-score = 0.771; total luciferase, % of control = 97.2; outcome = inactive
IFNE [SID160764023] → total luciferase, z-score = -0.132; total luciferase, % of control = 79.3; outcome = inactive
IFNE [SID160764024] → total luciferase, z-score = -1.16; total luciferase, % of control = 58.9; outcome = inactive
RPL41 [SID160716110] → total luciferase, z-score = -0.239; total luciferase, % of control = 77.1; outcome = inactive
RPL41 [SID160716111] → total luciferase, z-score = -1.47; total luciferase, % of control = 52.7; outcome = inactive
RPL41 [SID160716112] → total luciferase, z-score = -0.0622; total luciferase, % of control = 80.7; outcome = inactive
PHPT1 [SID160739024] → total luciferase, z-score = 0.841; total luciferase, % of control = 98.6; outcome = inactive
PHPT1 [SID160739025] → total luciferase, z-score = -1.86; total luciferase, % of control = 44.8; outcome = inactive
PHPT1 [SID160739026] → total luciferase, z-score = 0.268; total luciferase, % of control = 87.2; outcome = inactive
RPL31P50 [SID160764539] → total luciferase, z-score = -2.2; total luciferase, % of control = 38.1; outcome = inactive
RPL31P50 [SID160764540] → total luciferase, z-score = -0.352; total luciferase, % of control = 74.9; outcome = inactive
RPL31P50 [SID160764541] → total luciferase, z-score = -0.372; total luciferase, % of control = 74.5; outcome = inactive
MLKL [SID160760697] → total luciferase, z-score = -0.315; total luciferase, % of control = 75.6; outcome = inactive
MLKL [SID160760698] → total luciferase, z-score = 0.499; total luciferase, % of control = 91.8; outcome = inactive
MLKL [SID160760699] → total luciferase, z-score = -0.322; total luciferase, % of control = 75.5; outcome = inactive
FREM3 [SID160760218] → total luciferase, z-score = -0.0269; total luciferase, % of control = 81.4; outcome = inactive
FREM3 [SID160760219] → total luciferase, z-score = -0.965; total luciferase, % of control = 62.7; outcome = inactive
FREM3 [SID160760220] → total luciferase, z-score = -0.0743; total luciferase, % of control = 80.4; outcome = inactive
TPSAB1 [SID160718297] → total luciferase, z-score = 0.162; total luciferase, % of control = 85.1; outcome = inactive
TPSAB1 [SID160731854] → total luciferase, z-score = 0.996; total luciferase, % of control = 102; outcome = inactive
TPSAB1 [SID160731855] → total luciferase, z-score = 0.292; total luciferase, % of control = 87.7; outcome = inactive
DPM1 [SID160720868] → total luciferase, z-score = -0.994; total luciferase, % of control = 62.1; outcome = inactive
DPM1 [SID160720869] → total luciferase, z-score = 2.44; total luciferase, % of control = 130; outcome = inactive
DPM1 [SID160720870] → total luciferase, z-score = 0.526; total luciferase, % of control = 92.3; outcome = inactive
CST5 [SID160723723] → total luciferase, z-score = 0.128; total luciferase, % of control = 84.4; outcome = inactive
CST5 [SID160749841] → total luciferase, z-score = 0.186; total luciferase, % of control = 85.6; outcome = inactive
CST5 [SID160749852] → total luciferase, z-score = 0.118; total luciferase, % of control = 84.2; outcome = inactive
TMEM38B [SID160743068] → total luciferase, z-score = 1.46; total luciferase, % of control = 111; outcome = inactive
TMEM38B [SID160743069] → total luciferase, z-score = 0.215; total luciferase, % of control = 86.2; outcome = inactive
TMEM38B [SID160743070] → total luciferase, z-score = -0.598; total luciferase, % of control = 70; outcome = inactive

Reformatted: results already given
gene	PubChem SID	total luciferase, z-score	total luciferase, % of control	outcome
TPSAB1	SID160731854	0.996	102	inactive
TPSAB1	SID160731855	0.292	87.7	inactive
DPM1	SID160720868	-0.994	62.1	inactive
DPM1	SID160720869	2.44	130	inactive
DPM1	SID160720870	0.526	92.3	inactive
